Data: PMC11402785, “Structural basis for activity switching in polymerases determining the fate of let-7 pre-miRNAs” (Nature Structural & Molecular Biology, 2024)
For at least one entry, the source does not settle the construct or the ends of the probe. The comparison behind a weaker result is the experiment's own reference, which may not be listed here. For part of these data: At least one verdict was read from the data and is not stated in words by the source.

Key:
Assay in all cases: EMSA
[1] = test system: TUT4 R283A/R286A + LIN28A; conditions: 0.5 mM UTP, Ca2+, Zn2+, much-reduced ternary assembly (interface 3), EMSA: 20 mM HEPES pH 7.8, 100 mM NaCl, 2 mM CaCl2, 50 uM ZnCl2, 5% glycerol, 5 mM DTT, RNase inhibitor, on ice 30 min, 0.1 uM RNA, 0.2 uM TUT, 0.3 uM LIN28A, recombinant protein, label: 3' CY dye
[2] = test system: TUT4 interface 1 mutant + LIN28A; conditions: 0.5 mM UTP, Ca2+, Zn2+, affected less than interface 2/3, higher-order assemblies seen, EMSA: 20 mM HEPES pH 7.8, 100 mM NaCl, 2 mM CaCl2, 50 uM ZnCl2, 5% glycerol, 5 mM DTT, RNase inhibitor, on ice 30 min, 0.1 uM RNA, 0.2 uM TUT, 0.3 uM LIN28A, recombinant protein, label: 3' CY dye
[3] = test system: TUT4 interface 2/3 mutants + LIN28A; conditions: 0.5 mM UTP, Ca2+, Zn2+, much-reduced ternary assembly, EMSA: 20 mM HEPES pH 7.8, 100 mM NaCl, 2 mM CaCl2, 50 uM ZnCl2, 5% glycerol, 5 mM DTT, RNase inhibitor, on ice 30 min, 0.1 uM RNA, 0.2 uM TUT, 0.3 uM LIN28A, recombinant protein, label: 3' CY dye

Measured: binding result

UGAGGUAGUAGUUUGUACAGUUUGAGGGUCUAUGAUACCACCCGGUACAGGAGAUAACUGUACAGGCCACUGCCUUGC [pre-let-7g_3'CY]
binds more weakly: all assays above
